# Results deposited as PubChem BioAssay AID1224830 (NIAID, 2016)
# Screen: 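Regulators of TLR4 signalling towards TNF-alpha in macrophage-like cells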 (primary screen)
# Cells: human THP-1 monocytic leukaemia cells, TNF dual-luciferase reporter clone, PMA-differentiated to macrophage-like cells
# Reagents: siRNA pool against human genes, 50 nM
# Time to read-out: LPS for 4 h, given about 3 days after siRNA transfection
# Challenge: bacterial LPS (TLR4 ligand), 10 ng/ml
# Read-out: 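TNF firefly reporter luminescence divided by renilla, normalised to the plate median, then turned into a robust z-score for each replicate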
# Scale: TNF reporter robust z-score: higher = stronger TNF reporter response to LPS
# Active means: 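a well is active when its z-score exceeds 2.8 or falls below -1.5; control wells carry no call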
# Here is a random part of about 18,000 reagents. About 2,900 of all reagents (16%) were called active. 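Calls are made per well; low scores hint the gene aids the LPS response, high scores that it dampens it.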 Repeated entries: four replicate wells of each siRNA pool.
gene,TNF reporter robust z-score,outcome
TRIM41,-1.03,inactive
TRIM41,-2.18,active
TRIM41,-0.24,inactive
TRIM41,-1.29,inactive
KLF1,-0.81,inactive
KLF1,0.79,inactive
KLF1,-0.36,inactive
KLF1,-0.02,inactive
TSLP,-0.58,inactive
TSLP,-0.45,inactive
TSLP,-0.86,inactive
LHX4,-0.46,inactive
LHX4,0.17,inactive
LHX4,-0.44,inactive
LHX4,-0.25,inactive
PLIN5,-0.75,inactive
PLIN5,-0.55,inactive
PLIN5,-0.66,inactive
PLIN5,-0.79,inactive
CCR8,-1.45,inactive
CCR8,-1.48,inactive
CCR8,-1.36,inactive
CCR8,-1.55,active
SHPRH,-0.51,inactive
SHPRH,-0.02,inactive
SHPRH,0.33,inactive
SHPRH,0.47,inactive
ADTRP,1.2,inactive
ADTRP,0.41,inactive
ADTRP,0.23,inactive
ADTRP,0.44,inactive
RNF157,-1.07,inactive
RNF157,1.04,inactive
RNF157,-0.53,inactive
RNF157,2,inactive
DGAT2,-0.6,inactive
DGAT2,-0.97,inactive
DGAT2,-0.52,inactive
DGAT2,-0.93,inactive
RAB14,-1.45,inactive
RAB14,-0.64,inactive
RAB14,-0.87,inactive
RAB14,-1.24,inactive
PGS1,1.12,inactive
PGS1,1.67,inactive
PGS1,1.13,inactive
PGS1,2.05,inactive
ABCA7,1.23,inactive
ABCA7,1.24,inactive
ABCA7,1.05,inactive
ABCA7,1.14,inactive
TUT4,0.06,inactive
TUT4,-0.33,inactive
TUT4,0.51,inactive
TUT4,0.45,inactive
CASZ1,3.04,active
CASZ1,2.61,inactive
CASZ1,1.24,inactive
CASZ1,3.37,active
INTS14,-0.35,inactive
INTS14,0.71,inactive
INTS14,-0.83,inactive
INTS14,-0.08,inactive
KISS1R,0.08,inactive
KISS1R,-0.92,inactive
KISS1R,-0.69,inactive
KISS1R,-0.43,inactive
PFN2,0.21,inactive
PFN2,2.19,inactive
PFN2,0.12,inactive
PFN2,0.11,inactive
ASB7,-0.08,inactive
ASB7,0.25,inactive
ASB7,0.59,inactive
ASB7,-2.26,active
HNRNPUL2,0.74,inactive
HNRNPUL2,1.18,inactive
HNRNPUL2,0.15,inactive
HNRNPUL2,0.3,inactive
PCDH10,0.02,inactive
PCDH10,-0.93,inactive
PCDH10,0.2,inactive
PCDH10,0.74,inactive
PRRG4,-0.97,inactive
PRRG4,0.04,inactive
PRRG4,-0.04,inactive
PRRG4,-0.15,inactive
GLT6D1,0.67,inactive
GLT6D1,0.76,inactive
GLT6D1,-0.38,inactive
GLT6D1,0.93,inactive
BZW1,-0.93,inactive
BZW1,-1.02,inactive
BZW1,-0.25,inactive
BZW1,1.32,inactive
SUSD1,1.32,inactive
SUSD1,3.15,active
SUSD1,1.83,inactive
SUSD1,1.86,inactive
PER3,0.15,inactive
PER3,0.73,inactive
PER3,1.38,inactive
PER3,1.94,inactive
MAN2A1,-1.06,inactive
MAN2A1,-1.29,inactive
MAN2A1,-1.31,inactive
MAN2A1,-1.4,inactive
C12orf57,-0.97,inactive
C12orf57,-1.15,inactive
C12orf57,-1.46,inactive
C12orf57,-1.31,inactive

Records above called active, once more:
gene,TNF reporter robust z-score,outcome
TRIM41,-2.18,active
CCR8,-1.55,active
CASZ1,3.04,active
CASZ1,3.37,active
ASB7,-2.26,active
SUSD1,3.15,active
